PubChem BioAssay AID504764, Drosophila RNAi Screening Center – 2011

Purpose: 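Genome-wide screen for regulators of Notch-driven gene expression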 (primary screen)
Cell system: Drosophila Kc167 cells
Knock-down reagent: long dsRNA against Drosophila genes
Duration: about 5 days (4 days dsRNA, then 24 h after transfection)
Conditions: transfection of constitutively active membrane-tethered Notch lacking the extracellular domain, read 24 h later
Detection: 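Light from a Notch-responsive E(spl)m3 luciferase reporter under active Notch, with control-promoter and no-Notch reporter wells to normalise; raw counts from paired wells a and b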
Direction: induced reporter light, run 1, well a and induced reporter light, run 1, well b: higher = more light from the Notch target reporter with active Notch; control promoter light, run 1, well a and control promoter light, run 1, well b: higher = more light from the viral control promoter (cell number, transfection, viability); uninduced reporter light, run 1, well a: higher = more light from the Notch target reporter without active Notch
Active means: 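Wells with low control signal or poorly matching duplicates excluded; duplicates averaged; per source plate, z beyond ±2 for induced/control log2 ratio or beyond ±1.8 for induced/uninduced marks a hit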
Meaning of the calls: active = modifier hit (raised or lowered Notch signal); inactive = not a hit
The screen tested about 22,000 reagents; this is an unselected part of those with a known target gene and a result. Of all reagents, 403 (1.9%) are marked active. 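Unnormalised raw counts per well; ratio z-scores behind the hit calls and whether each hit raises or lowers signal are not deposited.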 A number with no mark means an inactive call. Names joined by + are all predicted targets of the reagent. Reagent sequences are not shown. The record does not give: the amount of reagent.

target gene | amplicon | induced reporter light, run 1, well a | induced reporter light, run 1, well b | control promoter light, run 1, well a | control promoter light, run 1, well b | uninduced reporter light, run 1, well a
Nthl1 | DRSC03183 | 67120 | 34225 | 57195 | 40030 | 2028
CG15831 (retired record) | DRSC20816 | 1.18e5 | 93515 | 1.42e5 | 1.35e5 | 10800
sky | DRSC02383 | 2.37e5 | 2.29e5 | 1.73e5 | 1.97e5 | 18330
sky | DRSC03214 | 2.10e5 | 1.73e5 | 1.63e5 | 1.84e5 | 17765
sky | DRSC03215 | 62355 | 41340 | 39320 | 36625 | 1580
ND-49 | DRSC17151 | 31835 | 31220 | 34805 | 37035 | 2320
Parp1 | DRSC07725 | 90795 | 89980 | 1.11e5 | 98875 | 7775
Parp1 | DRSC07778 | 81595 | 1.05e5 | 1.63e5 | 1.68e5 | 5595
Parp1 | DRSC07780 | 98270 | 1.31e5 | 1.92e5 | 1.90e5 | 8120
Cpr35B | DRSC01949 | 1.46e5 | 1.64e5 | 1.27e5 | 1.40e5 | 12055
Hr39 | DRSC03346 | 1.75e5 | 2.12e5 | 1.80e5 | 1.76e5 | 16420
Drl-2 | DRSC05393 | 1.52e5 | 2.00e5 | 2.04e5 | 1.94e5 | 15578
Drl-2 | DRSC06155 | 80540 | 83635 | 1.06e5 | 1.15e5 | 9135
Drl-2 | DRSC06858 | 1.02e5 | 83775 | 87130 | 90425 | 8890
pirk | DRSC04269 | 24238 | 23542 | 20565 | 27680 | 2740
aop | DRSC00801 | 3632 | 3760 | 6425 | 3985 | 2895
DJ-1alpha | DRSC07005 | 66820 | 84585 | 1.10e5 | 1.17e5 | 8570
angel | DRSC04670 | 85760 | 82240 | 58925 | 67580 | 6580
Ir76b | DRSC10831 | 1.08e5 | 95845 | 1.03e5 | 86945 | 11020
BORCS7 + CG13430 | DRSC06392 | 1.04e5 | 1.11e5 | 2.01e5 | 2.03e5 | 8588
BORCS7 + CG13430 | DRSC06707 | 1.45e5 | 1.61e5 | 2.17e5 | 2.76e5 | 6475
